Consider five molecules from paper PMC6615643.

Chains of the proteins cited; added tags and fusions are not shown.
UniProt Q96RF0: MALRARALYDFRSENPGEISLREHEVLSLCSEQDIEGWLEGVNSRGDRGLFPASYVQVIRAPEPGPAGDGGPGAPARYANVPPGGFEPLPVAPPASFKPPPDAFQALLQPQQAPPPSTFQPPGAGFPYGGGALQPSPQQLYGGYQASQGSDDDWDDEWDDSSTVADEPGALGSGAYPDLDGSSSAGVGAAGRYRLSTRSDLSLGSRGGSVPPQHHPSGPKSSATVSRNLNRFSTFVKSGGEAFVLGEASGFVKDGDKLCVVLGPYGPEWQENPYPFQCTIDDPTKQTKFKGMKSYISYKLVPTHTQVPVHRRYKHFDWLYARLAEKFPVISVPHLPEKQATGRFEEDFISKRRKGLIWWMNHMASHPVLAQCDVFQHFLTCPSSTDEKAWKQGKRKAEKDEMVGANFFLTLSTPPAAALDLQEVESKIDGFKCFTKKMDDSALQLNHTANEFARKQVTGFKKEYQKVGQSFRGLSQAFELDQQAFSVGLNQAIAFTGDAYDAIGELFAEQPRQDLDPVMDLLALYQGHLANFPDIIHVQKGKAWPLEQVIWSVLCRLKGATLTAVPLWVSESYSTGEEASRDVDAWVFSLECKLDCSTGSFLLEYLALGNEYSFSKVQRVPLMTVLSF
UniProt O00401: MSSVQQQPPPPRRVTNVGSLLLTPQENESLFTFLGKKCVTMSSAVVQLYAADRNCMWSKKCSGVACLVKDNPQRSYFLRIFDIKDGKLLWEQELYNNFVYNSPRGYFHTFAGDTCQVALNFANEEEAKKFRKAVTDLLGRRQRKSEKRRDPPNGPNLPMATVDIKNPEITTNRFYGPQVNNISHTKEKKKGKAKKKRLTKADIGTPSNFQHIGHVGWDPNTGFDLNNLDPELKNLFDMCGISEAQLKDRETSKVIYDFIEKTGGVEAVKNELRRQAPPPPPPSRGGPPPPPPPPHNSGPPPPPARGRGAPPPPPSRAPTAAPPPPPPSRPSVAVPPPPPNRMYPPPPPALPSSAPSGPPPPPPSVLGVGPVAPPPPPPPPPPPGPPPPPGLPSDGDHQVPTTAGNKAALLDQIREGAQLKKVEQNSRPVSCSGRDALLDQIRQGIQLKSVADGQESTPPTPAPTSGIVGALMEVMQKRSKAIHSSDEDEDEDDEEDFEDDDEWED
UniProt O43516: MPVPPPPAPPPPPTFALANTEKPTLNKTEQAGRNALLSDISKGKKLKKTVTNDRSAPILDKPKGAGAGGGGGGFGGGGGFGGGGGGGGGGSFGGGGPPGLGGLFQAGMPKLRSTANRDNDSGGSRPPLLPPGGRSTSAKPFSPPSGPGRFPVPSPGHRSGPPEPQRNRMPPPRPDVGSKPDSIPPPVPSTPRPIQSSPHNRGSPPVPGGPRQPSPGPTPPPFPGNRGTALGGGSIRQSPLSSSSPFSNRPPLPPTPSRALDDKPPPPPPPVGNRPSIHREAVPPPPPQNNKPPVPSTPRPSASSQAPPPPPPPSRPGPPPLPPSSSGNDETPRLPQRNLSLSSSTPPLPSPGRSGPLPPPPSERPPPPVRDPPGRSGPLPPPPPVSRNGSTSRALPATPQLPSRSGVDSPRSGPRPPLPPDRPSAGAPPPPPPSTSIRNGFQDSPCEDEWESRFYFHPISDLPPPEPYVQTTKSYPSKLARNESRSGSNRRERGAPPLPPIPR
UniProt Q9Y5X1: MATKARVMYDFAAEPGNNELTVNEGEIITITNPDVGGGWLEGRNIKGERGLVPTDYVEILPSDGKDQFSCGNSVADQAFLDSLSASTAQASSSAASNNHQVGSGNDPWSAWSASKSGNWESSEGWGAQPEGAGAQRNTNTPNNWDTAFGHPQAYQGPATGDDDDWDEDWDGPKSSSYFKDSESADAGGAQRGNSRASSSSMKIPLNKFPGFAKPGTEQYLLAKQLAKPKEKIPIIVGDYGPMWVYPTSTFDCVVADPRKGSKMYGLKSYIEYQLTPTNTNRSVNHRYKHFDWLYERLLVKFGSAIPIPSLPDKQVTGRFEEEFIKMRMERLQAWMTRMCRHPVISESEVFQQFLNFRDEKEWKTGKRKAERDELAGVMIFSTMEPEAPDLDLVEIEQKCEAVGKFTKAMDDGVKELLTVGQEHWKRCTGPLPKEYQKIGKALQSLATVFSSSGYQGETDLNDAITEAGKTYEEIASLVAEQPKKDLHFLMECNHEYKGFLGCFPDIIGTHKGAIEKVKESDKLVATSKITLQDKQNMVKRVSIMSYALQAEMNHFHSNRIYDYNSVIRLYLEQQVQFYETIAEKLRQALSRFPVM

This test concerns the target T1, EspF, Flag-tagged, translocated into HeLa cells from EPEC-espF+EspF (enteropathogenic Escherichia coli O127:H6 E2348/69) (UniProt B7UM88).
T1 sequence: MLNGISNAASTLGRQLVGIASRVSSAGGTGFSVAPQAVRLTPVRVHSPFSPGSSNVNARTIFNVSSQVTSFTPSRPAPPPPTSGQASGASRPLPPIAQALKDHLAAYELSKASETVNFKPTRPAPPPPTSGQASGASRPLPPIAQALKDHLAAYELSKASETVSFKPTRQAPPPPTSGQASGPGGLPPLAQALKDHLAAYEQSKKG
The test can be described thus: affinity purification with mass spectrometry; HeLa cells infected 30 min with EPEC espF (control) or espF+EspF; lysis in 50 mM Tris pH 7.4, 150 mM NaCl, 0.5% NP-40; anti-FLAG-M2 magnetic beads 4 h at 4 °C; on-bead trypsin digest, nanoLC-MS/MS, label-free quantification; quadruplicate.

No constants are given. Whether binding was seen depends on the method and setting. In cells and extracts the contact can be indirect. These calls come from enrichment with a bait or labelling near it, and not all partners need be listed. Tags and fused reporters may be left off the sequences shown.

As for SNX18 (from UniProt Q96RF0 1-628), the binding entry was “binds”. In the case of “neuronal Wiskott-Aldrich syndrome protein (N-WASP) (from UniProt O00401 1-505)”, the binding entry is given as “binds”. As to “WIPF1 (WASP/WASL-interacting protein) (from UniProt O43516 1-503)”, the binding result is recorded as “binds”.

With “sorting nexin 9 (SNX9) (from UniProt Q9Y5X1 1-595)”, the binding result was “binds”.

B1: SNX33 (protein, UniProt Q8WV41 1-574)
chain: MALKGRALYDFHSENKEEISIQQDEDLVIFSETSLDGWLQGQNSRGETGLFPASYVEIVRSGISTNHADYSSSPAGSPGAQVSLYNSPSVASPARSGGGSGFLSNQGSFEEDDDDDWDDWDDGCTVVEEPRAGGLGTNGHPPLNLSYPGAYPSQHMAFRPKPPLERQDSLASAKRGSVVGRNLNRFSCFVRSGVEAFILGDVPMMAKIAETYSIEMGPRGPQWKANPHPFACSVEDPTKQTKFKGIKSYISYKLTPTHAASPVYRRYKHFDWLYNRLLHKFTVISVPHLPEKQATGRFEEDFIEKRKRRLILWMDHMTSHPVLSQYEGFQHFLSCLDDKQWKMGKRRAEKDEMVGASFLLTFQIPTEHQDLQDVEDRVDTFKAFSKKMDDSVLQLSTVASELVRKHVGGFRKEFQKLGSAFQAISHSFQMDPPFCSEALNSAISHTGRTYEAIGEMFAEQPKNDLFQMLDTLSLYQGLLSNFPDIIHLQKGAFAKVKESQRMSDEGRMVQDEADGIRRRCRVVGFALQAEMNHFHQRRELDFKHMMQNYLRQQILFYQRVGQQLEKTLRMYDNL
Regarding B1, the binding entry is “binds”.
